Assay results reported in patent publication US10414759B2, “Phenylthiazoles and uses thereof” (Purdue Research Foundation, priority 2017, dated 2019).
For at least one compound, name, drawing or mass did not settle the structure.

Test system: MRSA USA400 (NRS123)
Experiment: Multi-step resistance selection experiment
Format: cell-based, Staphylococcus aureus
Protocol: To determine if MRSA would be capable of forming resistance to the compounds quickly, a multi-step resistance selection experiment was conducted, as described previously. The broth microdilution assay was utilized to determine the MIC of the tested compounds and rifampicin exposed to MRSA USA400 (NRS123) for 14 passages over a period of two weeks. Resistance was classified as a greater than four-fold increase in the initial MIC, as reported elsewhere.

Compound: CO[C@H]1/C=C/O[C@@]2(C)Oc3c(C)c(O)c4c(O)c(c(/C=N/N5CCN(C)CC5)c(O)c4c3C2=O)NC(=O)/C(C)=C\C=C\[C@H](C)[C@H](O)[C@@H](C)[C@@H](O)[C@@H](C)[C@H](OC(C)=O)[C@@H]1C [rifampicin, reference compound]
- increase in MIC after only one passage: 29 fold
